The record followed here is US20050118683A1.

Sequences of proteins named here, by UniProt entry; tags and fusion partners are left off. A change or cut given only in a name is not applied to a line headed by its entry.
UniProt P35225: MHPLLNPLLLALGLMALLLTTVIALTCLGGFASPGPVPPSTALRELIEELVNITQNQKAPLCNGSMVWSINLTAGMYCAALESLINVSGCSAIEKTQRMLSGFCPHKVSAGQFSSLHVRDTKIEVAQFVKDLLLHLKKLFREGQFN

The target of the assay is hIL-13Rα2.Fc fusion polypeptide (soluble human IL-13Rα2 extracellular domain fused to hinge-CH2-CH3 of human Ig γ-1 heavy chain) (human). The assay can be described thus: co-expressed complex held on a Protein A column, MgCl2 wash, SEC-HPLC of dissociated IL-13. A general note: Size exclusion chromatography separates by hydrodynamic size, large species first.

No constants are given. Whether binding was seen depends on the method and setting. Some binding calls cover weakened binding; strength is not graded here.

Take “R127D human IL-13 (from UniProt P35225 35-146) (ligand)”: the binding entry is on record as “binds”.
For “R127P human IL-13 (from UniProt P35225 35-146) (ligand)”, the binding entry is “binds”.
